According to article PMC6187632, “A glutaredoxin domain fused to the radical-generating subunit of ribonucleotide reductase (RNR) functions as an efficient RNR reductant” (The Journal of Biological Chemistry, 2018):
No constants are given. Whether binding was seen depends on the method and setting. A result given as binding can be weak or reduced; the word gives no strength.

The chains behind the UniProt entries cited, without tags or fusion partners. Where a name states a change or a piece, a line headed by the entry shows the natural chain unless it says otherwise.
UniProt K1LAT4: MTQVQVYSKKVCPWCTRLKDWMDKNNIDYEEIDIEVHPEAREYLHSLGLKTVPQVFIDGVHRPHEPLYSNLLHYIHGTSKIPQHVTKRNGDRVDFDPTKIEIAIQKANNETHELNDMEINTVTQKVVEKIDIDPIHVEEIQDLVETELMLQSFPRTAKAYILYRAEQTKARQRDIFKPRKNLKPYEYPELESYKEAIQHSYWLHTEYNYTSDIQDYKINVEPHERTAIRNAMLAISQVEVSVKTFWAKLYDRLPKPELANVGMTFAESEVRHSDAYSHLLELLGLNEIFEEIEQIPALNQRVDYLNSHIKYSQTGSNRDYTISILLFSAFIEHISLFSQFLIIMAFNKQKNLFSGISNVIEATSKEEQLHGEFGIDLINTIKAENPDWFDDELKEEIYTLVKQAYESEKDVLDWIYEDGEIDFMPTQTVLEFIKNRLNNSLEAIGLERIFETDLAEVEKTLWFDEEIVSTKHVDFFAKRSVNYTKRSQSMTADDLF
UniProt K1MC37: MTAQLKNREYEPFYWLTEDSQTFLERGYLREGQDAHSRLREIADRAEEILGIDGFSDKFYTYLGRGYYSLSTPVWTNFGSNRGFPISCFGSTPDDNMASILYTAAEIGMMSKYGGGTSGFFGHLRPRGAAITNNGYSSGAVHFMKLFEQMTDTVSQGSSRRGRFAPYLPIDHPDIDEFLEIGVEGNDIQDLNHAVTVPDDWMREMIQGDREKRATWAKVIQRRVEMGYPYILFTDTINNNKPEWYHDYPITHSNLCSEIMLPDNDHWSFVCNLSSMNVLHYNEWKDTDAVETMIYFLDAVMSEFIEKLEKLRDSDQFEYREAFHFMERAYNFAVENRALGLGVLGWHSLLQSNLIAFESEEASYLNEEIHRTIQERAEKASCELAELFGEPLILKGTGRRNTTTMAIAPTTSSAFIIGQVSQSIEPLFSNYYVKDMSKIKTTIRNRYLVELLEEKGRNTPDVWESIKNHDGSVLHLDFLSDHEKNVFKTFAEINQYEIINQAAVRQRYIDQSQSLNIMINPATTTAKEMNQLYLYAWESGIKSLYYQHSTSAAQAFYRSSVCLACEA

Key:
[1] = target: Facklamia ignava NrdB (Grx::ATP-cone::NrdB fusion protein, NrdBi) (Facklamia ignava) (UniProt K1LAT4); test: GEMMA (gas-phase electrophoretic macromolecule analysis); with 50 uM dATP and equimolar Mg acetate; 0.05 mg/ml protein (0.025 mg/ml of each in mixtures), 20 mM ammonium acetate pH 7.8, 1 mM DTT, 0.005% Tween 20, room temperature; both purified
[2] = target: Facklamia ignava NrdB (Grx::ATP-cone::NrdB fusion protein, NrdBi) (Facklamia ignava) (UniProt K1LAT4); test: GEMMA (gas-phase electrophoretic macromolecule analysis); with 100 uM ATP and equimolar Mg acetate; 0.05 mg/ml protein (0.025 mg/ml of each in mixtures), 20 mM ammonium acetate pH 7.8, 1 mM DTT, 0.005% Tween 20, room temperature; both purified
[3] = target: Facklamia ignava NrdB (Grx::ATP-cone::NrdB fusion protein, NrdBi) (Facklamia ignava) (UniProt K1LAT4); test: SEC; Superdex 200 10/300, 0.1 mM dATP in the mobile phase; 50 mM KCl, 10 mM MgCl2, 0.1 mM DTT, 50 mM Tris-HCl pH 7.6, room temperature; single subunits 5 and 10 uM, mixture 10 and 20 uM of each; both purified
[4] = target: Facklamia ignava NrdB (Grx::ATP-cone::NrdB fusion protein, NrdBi) (Facklamia ignava) (UniProt K1LAT4); test: SEC; Superdex 200 10/300, 3 mM ATP in the mobile phase; 50 mM KCl, 10 mM MgCl2, 0.1 mM DTT, 50 mM Tris-HCl pH 7.6, room temperature; single subunits 5 and 10 uM, mixture 10 and 20 uM of each; both purified
[5] = target: Facklamia ignava NrdB (Grx::ATP-cone::NrdB fusion protein, NrdBi) (Facklamia ignava) (UniProt K1LAT4); test: GEMMA (gas-phase electrophoretic macromolecule analysis); no effector; 0.05 mg/ml protein (0.025 mg/ml of each in mixtures), 20 mM ammonium acetate pH 7.8, 1 mM DTT, 0.005% Tween 20, room temperature; both purified
[6] = target: Facklamia ignava NrdB (Grx::ATP-cone::NrdB fusion protein, NrdBi) (Facklamia ignava) (UniProt K1LAT4); test: SEC; Superdex 200 10/300, no effector; 50 mM KCl, 10 mM MgCl2, 0.1 mM DTT, 50 mM Tris-HCl pH 7.6, room temperature; NrdA 5 and 10 uM, NrdB 1.25-10 uM, mixture 10 uM of each; both purified

Measured: binding

Facklamia ignava NrdA (NrdAi) (from UniProt K1MC37) (enzyme)
binds: all assays above
